Data: paper PMC3315512
No constants are given. Whether binding was seen depends on the method and setting. Some results given as binding are weak or reduced against the parent protein; the word gives no strength.

Chains of the proteins cited; added tags and fusions are not shown.
UniProt Q20774: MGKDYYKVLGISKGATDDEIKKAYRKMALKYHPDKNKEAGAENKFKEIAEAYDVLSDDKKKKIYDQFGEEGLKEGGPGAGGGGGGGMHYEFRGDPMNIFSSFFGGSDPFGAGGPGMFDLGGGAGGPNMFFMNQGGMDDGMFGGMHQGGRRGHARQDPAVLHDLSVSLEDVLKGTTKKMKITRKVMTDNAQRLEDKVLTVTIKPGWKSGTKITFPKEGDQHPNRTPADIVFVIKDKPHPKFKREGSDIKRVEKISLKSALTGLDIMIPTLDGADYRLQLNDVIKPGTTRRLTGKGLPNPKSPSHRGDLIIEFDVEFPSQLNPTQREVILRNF

Target: DNJ-13 (C. elegans, unlabelled) (C. elegans) (UniProt Q20774)
Test: AUC; unlabeled BAG-1 and unlabeled DNJ-13, each alone; molecular weight, s20,w and D20,w compared with the labelled proteins; data not shown; both purified

## DNJ-13 (C. elegans, unlabelled) (from UniProt Q20774 1-331)
  binding: binds
